# Laboratory results taken from US20250186326A1, “Anti-Aging Compositions” (PROGELIFE, priority 2022, published 2025).
# At least one compound was matched to its structure with a doubt left.
# What was measured:
# [1] = system: farnesylation of prelamin A; experiment: Western blot of prelamin A in human skin fibroblasts (inhibition of farnesylation); type: cell-based; details: controls: alendronate and/or pravastatin 10 μM without tested compound; human skin fibroblasts AG13334, 72 h; Ritonavir 4 μM and Lopinavir 20 μM added
# Description: (§1) Control Human fibroblast from skin (AG13334) were obtained from Coriell Institute. Cells were maintained in culture according to supplier information at 37° C. in a humidified atmosphere containing 5% CO2.
# (§2) Fibroblasts were cultured 72 h without culture-media renewal.
# (§3) Pravastatin/Compound II.3a • 14. Pravastatin/Compound II.2 • 15. Pravastatin/Compound I.12 • 16. Pravastatin/Compound II.5
# (§4) Ritonavir (4 μM) and Lopinavir (20 μM) were added in all tested conditions to improve the lower limit of detection of prenylated prelamin A in western blots.
# (§5) Total fibroblast proteins were extracted after 72 hours treatment in 100 μl of NP40 (Invitrogen) with 1× protease and phosphatase inhibitor cocktail (Life Technologies). Lysates were incubated on ice for 30 minutes, with vortexing at 10-minute intervals. Finally, they were sonicated four times (20 sec each) and then centrifuged at 13000 rpm for 10 minutes at 4° C.
# (§6) Protein concentrations were determined with the BCA™ Protein Assay (Life Technologies). […]
# (§7) Bound antibodies were detected and analyzed on an Odyssey imaging system (Li-COR Biosciences, Bad Homburg, Germany) according to the manufacturer's instructions. […]
# [2] = system: farnesylation of HDJ2; experiment: Western blot of unfarnesylated HDJ2 in human skin fibroblasts (inhibition of farnesylation); type: cell-based; details: controls: alendronate and/or pravastatin 10 μM without tested compound; human skin fibroblasts AG13334, 72 h; Ritonavir 4 μM and Lopinavir 20 μM added
# Description: as §1, §2, §3, §4, §5, §6, §7
compound,measurement,setting,value
"CC[C@H](C)C(=O)O[C@H]1C[C@H](O)C=C2C=C[C@H](C)[C@H](CC[C@@H](O)C[C@@H](O)CC(=O)O)[C@H]21 [pravastatin, reference compound]","prelamin A band (western blot, FIG. 1)",[1],essentially absent
same,"unfarnesylated HDJ2 band (western blot, FIG. 1)",[2],essentially absent
